Results: PMC12815688
Results are given in words; binding and its absence hold for the method and conditions named. Binding seen in cells or lysates may run through a third protein. Some entries that bind do so weakly or less than the wild type.

Protein sequences, listed by entry. Tags and fused reporters are not part of them.
UniProt P17918: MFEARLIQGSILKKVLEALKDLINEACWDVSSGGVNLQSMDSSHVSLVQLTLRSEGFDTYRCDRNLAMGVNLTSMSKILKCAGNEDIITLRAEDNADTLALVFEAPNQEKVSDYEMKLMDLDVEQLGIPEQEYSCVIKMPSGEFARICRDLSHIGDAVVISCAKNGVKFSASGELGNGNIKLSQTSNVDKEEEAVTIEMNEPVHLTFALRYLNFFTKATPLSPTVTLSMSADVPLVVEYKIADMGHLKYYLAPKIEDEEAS
UniProt Q5PSV9: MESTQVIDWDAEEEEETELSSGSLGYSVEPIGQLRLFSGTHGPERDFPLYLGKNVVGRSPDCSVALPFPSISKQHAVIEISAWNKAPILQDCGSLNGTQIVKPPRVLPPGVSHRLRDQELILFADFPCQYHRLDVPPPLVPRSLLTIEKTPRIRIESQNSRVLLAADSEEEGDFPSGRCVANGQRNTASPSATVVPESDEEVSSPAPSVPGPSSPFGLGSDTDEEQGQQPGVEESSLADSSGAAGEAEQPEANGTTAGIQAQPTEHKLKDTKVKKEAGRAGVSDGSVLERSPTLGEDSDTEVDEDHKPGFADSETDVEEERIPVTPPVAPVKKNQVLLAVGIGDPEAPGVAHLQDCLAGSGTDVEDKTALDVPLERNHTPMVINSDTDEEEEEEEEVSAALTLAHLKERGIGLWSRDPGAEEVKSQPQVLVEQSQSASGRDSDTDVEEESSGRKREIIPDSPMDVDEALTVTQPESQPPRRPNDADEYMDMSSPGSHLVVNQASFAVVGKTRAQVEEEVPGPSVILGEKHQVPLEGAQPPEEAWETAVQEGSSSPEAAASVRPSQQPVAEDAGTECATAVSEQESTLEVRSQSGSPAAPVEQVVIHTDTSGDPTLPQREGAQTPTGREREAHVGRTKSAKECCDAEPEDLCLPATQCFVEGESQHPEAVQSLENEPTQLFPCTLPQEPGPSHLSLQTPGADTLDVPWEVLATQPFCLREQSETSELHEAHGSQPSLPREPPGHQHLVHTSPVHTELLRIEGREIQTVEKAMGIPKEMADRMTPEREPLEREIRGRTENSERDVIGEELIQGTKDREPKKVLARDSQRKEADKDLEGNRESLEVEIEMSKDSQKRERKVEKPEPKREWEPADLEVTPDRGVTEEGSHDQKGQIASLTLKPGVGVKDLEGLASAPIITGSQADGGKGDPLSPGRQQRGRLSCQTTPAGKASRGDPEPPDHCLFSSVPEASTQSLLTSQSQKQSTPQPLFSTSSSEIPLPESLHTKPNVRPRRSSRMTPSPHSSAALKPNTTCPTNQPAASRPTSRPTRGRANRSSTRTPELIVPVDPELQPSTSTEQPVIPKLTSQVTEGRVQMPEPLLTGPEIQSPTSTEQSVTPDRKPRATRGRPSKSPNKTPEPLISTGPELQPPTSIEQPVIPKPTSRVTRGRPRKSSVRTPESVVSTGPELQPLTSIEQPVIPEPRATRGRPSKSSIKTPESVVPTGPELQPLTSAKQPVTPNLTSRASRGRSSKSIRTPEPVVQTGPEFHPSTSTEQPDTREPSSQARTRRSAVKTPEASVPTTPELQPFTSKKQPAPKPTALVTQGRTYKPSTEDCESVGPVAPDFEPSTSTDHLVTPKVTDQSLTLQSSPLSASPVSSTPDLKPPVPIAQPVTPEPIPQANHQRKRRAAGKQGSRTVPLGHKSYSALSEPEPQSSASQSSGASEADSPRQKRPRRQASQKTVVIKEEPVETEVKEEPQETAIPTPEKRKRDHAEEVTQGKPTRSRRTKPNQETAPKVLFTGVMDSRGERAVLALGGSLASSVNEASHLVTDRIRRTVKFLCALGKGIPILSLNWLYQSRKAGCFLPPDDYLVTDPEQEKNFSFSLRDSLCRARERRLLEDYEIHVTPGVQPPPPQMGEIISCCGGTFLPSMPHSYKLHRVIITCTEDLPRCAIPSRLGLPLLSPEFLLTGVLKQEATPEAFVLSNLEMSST

Biological target: PCNA (mouse (endogenous in KB2P1.21)) (UniProt P17918)
Experiment: proximity ligation; KB2P1.21 cells labelled with 10 uM EdU for 30 min, pre-extracted with CSK buffer, fixed with PFA; anti-MDC1 and anti-PCNA primary antibodies, Duolink kit; PLA foci counted in EdU-positive nuclei; MDC1-proficient against MDC1-deficient cells

MDC1 (from UniProt Q5PSV9 1-1707)
binding: binds
